Data from PubChem BioAssay AID493014 (National Center for Advancing Translational Sciences (NCATS), 2011).
“And” between values parts separate entries of the source, which are not always exact repeats. Identical values can stand only once. The list shows a part of the results. Further columns of the screen follow, without active or inactive calls. The list favours compounds with an active or inconclusive main result. Potencies come from curve fits of mixed quality, noted in brackets.

Test: qHTS Assay to Find Inhibitors of Chronic Active B-Cell Receptor Signaling
Settings: ABC-DLBCL IkBa-CBG/CBR reporter, luminescence ratio (green luciferase fused to IkBa over red control in TMD8 lymphoma cells), 4 h
Outline: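 Doxycycline induced both beetle luciferases in TMD8 lymphoma cells; IKK-driven degradation limits the IkappaBalpha-fused green signal, while red luminescence normalises for cell number and nonspecific effects. Compounds tested up to 46 uM, 4 hrs.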

[1] = measured here: CBR red luminescence, cell number

Row | SMILES | AC50 [1] | AC50 (measured here: IkBa-CBG green luminescence)
1 | O=C(CCN1C(=O)/C(=C/c2ccc(Cl)cc2)SC1=S)NC1C=CS(=O)(=O)C1 (stereo not given) | 8.91 µM [falling, partial curve] | –
2 | COc1ccc(F)cc1C(=O)C1CCCN(C(=O)CSc2ccccn2)C1 (stereo not given) | 5.62 µM [rising, single point] | –
3 | O=C(NC1CCc2ccccc21)c1cc(COc2ccc(F)cc2Cl)on1 (stereo not given) | 14.1 µM [falling, single point] | –
4 | Cn1cc(CN2CCC(CO)CC2)c(-c2ccc(Oc3ccccc3)cc2)n1 | 5.62 µM [rising, full curve] | –
5 | O=C(Cc1ccccc1)NCC(=O)N/N=C/c1ccc([N+](=O)[O-])s1 | 35.5 µM [falling, single point] | –
6 | COc1ccccc1OC(C)C(=O)Nc1nc(-c2ccc(S(=O)(=O)N3CCOCC3)cc2)cs1 (stereo not given) | 5.62 µM [rising, full curve] | –
7 | CN(Cc1ccccc1)C(=O)c1[nH]cnc1C(=O)NCc1ccccc1 | 16.4 µM [falling, single point] | –
8 | COc1ccccc1NS(=O)(=O)c1cc(NC(=O)c2cc3ccccc3oc2=O)ccc1C | 0.082 µM [falling, full curve, poor fit] | –
9 | O=C(Cc1csc(NC(=O)c2ccc(F)cc2)n1)NO | 35.5 µM [falling, single point] | –
10 | COc1cccc(C2=CC(c3ccccc3F)n3c(nc4ccccc43)N2)c1 (stereo not given) | 12.6 µM [falling, partial curve] | –
11 | O=C(c1cc(COc2ccc(F)cc2Cl)on1)N1CCc2ccccc2C1 | 14.1 µM [rising, partial curve] | –
12 | COc1ccc(-c2nnc(-c3ccc(F)cc3)o2)cc1 | 0.562 µM [rising, full curve, poor fit] | –
13 | Cc1onc(C(=O)/C=C/N(C)C)c1C(=O)Nc1nccs1 | 6.31 µM [falling, partial curve, poor fit] | –
14 | COc1ccc2oc(C(=O)Nc3nc4ccccc4[nH]3)c(C)c2c1 | 1.26 µM [falling, full curve, poor fit] | –
15 | CCc1ccc(-c2cn(-c3nc(C)cc(C)n3)c(=N)o2)cc1 | 14.6 µM [rising, partial curve] | –
16 | Clc1ccc(CSc2nnc(-c3ccccn3)n2Cc2ccco2)c(Cl)c1 | 1.78 µM [falling, partial curve, poor fit] | –
17 | Cc1cc(N2CCN(c3ccc(C(F)(F)F)cc3[N+](=O)[O-])CC2)c2ccccc2n1 | 14.1 µM [falling, single point] | –
18 | Cc1ccc(S(=O)(=O)NCCc2csc3nc(-c4ccccc4C)nn23)cc1 | 22.4 µM [falling, single point] | –
19 | COc1ccc(Nc2oc(-c3ccccc3)nc2C#N)cc1 | 35.5 µM [rising, single point] | –
20 | Cn1cc([N+](=O)[O-])c(C(=O)Nc2ccn(Cc3c(F)c(F)cc(F)c3F)n2)n1 | 1.84 µM [falling, partial curve, poor fit] | –
21 | O=S(=O)(c1cccs1)N1CCN(CC(O)COc2cc(Cl)ccc2Cl)CC1 (stereo not given) | 35.5 µM [falling, single point] | –
22 | COc1ccc(OC)c(NC(=S)NCc2cccs2)c1 | 1.64 µM [rising, full curve, poor fit] | –

Row | SMILES | AC50 [1] | AC50 (measured here: IkBa-CBG green luminescence)
23 | CCOc1ccc(CSC2=NCCN2)cc1Cl | 15.8 µM [falling, single point] | –
24 | Cc1cccn2c(=O)c3cc(S(=O)(=O)c4ccccc4)c(=N)n(Cc4ccco4)c3nc12 | 14.1 µM [falling, partial curve] | –
25 | CSc1nc(O)c(C(c2cccc([N+](=O)[O-])c2)c2c(O)nc(SC)[nH]c2=O)c(=O)[nH]1 | 0.0891 µM [rising, full curve, poor fit] | –
26 | COc1ccc(CNCCC2(C(C)C)CCOC(C)(C)C2)cc1 (stereo not given) | 3.16 µM [falling, full curve, poor fit] | –
27 | CNc1nc(-c2ccc(Cl)cc2)cs1 | 1.26 µM [rising, partial curve] | –
28 | CCc1c(C)nc2cc(-c3ccc(OC)c(OC)c3)nn2c1N1CCC(C)CC1 | 3.98 µM [rising, full curve, poor fit] | –
29 | CC1=C(C)CC2C(=O)N(Cc3ccccc3)C(=O)C2C1 (stereo not given) | 1.84 µM [rising, partial curve] | –
30 | Cn1c(SCC(=O)c2ccccc2)nnc1-c1ccccn1 | 35.5 µM [falling, single point] | –
31 | COc1ccc(-n2nc3c(c2NC(=O)COc2ccccc2)CS(=O)C3)cc1 (stereo not given) | 31.6 µM [rising, single point] | –
32 | Fc1ccc(N/N=C/C=C/c2ccccc2)c(F)c1 | 0.206 µM [rising, full curve, poor fit] | –
33 | CCC1(C(=O)c2ccccc2)C(c2cccc([N+](=O)[O-])c2)C1(C(=O)OC)C(=O)OC (stereo not given) | 9.2 µM [falling, partial curve] | –
34 | CCCC(=O)Nc1nnc(Cc2ccccc2)s1 | 20 µM [rising, partial curve, poor fit] | –
35 | O=C(c1ccccc1F)N(Cc1ccc2c(c1)OCO2)Cc1cc2cc3c(cc2n2nnnc12)OCO3 | 35.5 µM [rising, single point] | –
36 | O=C1N=C(N2CCOCC2)S/C1=C\C=C/c1ccccc1 | 5.01 µM [falling, partial curve] | –
37 | O=C(/C=C/c1cccs1)Nc1nncs1 | 25.1 µM [falling, single point] | –
38 | O=C1[C@@H](Oc2ccccc2)[C@@H](c2cnc3ccccc3c2)N1c1ccccc1 | 1.16 µM [falling, partial curve, poor fit] | –
39 | CCc1ccc(N2CCN(C(=O)c3ccc4c(c3)OCO4)CC2)cc1 | 3.55 µM [rising, full curve, poor fit] | –
40 | COc1cccc(N2CCN(C(=O)c3ccc(CS(=O)c4ccc(Cl)cc4)o3)CC2)c1 (stereo not given) | 22.4 µM [rising, single point] | 12.6 µM [falling, partial curve]
41 | Cc1c(Cc2ccccc2)c(=O)n2c([nH]c3ccccc32)c1C#N | 14.1 µM [falling, single point] | –
42 | Cc1cc(C)cc(CC2CC(=O)N(c3nc(C)cc(C)n3)C2=O)c1 (stereo not given) | 5.62 µM [rising, single point] | –
43 | OC(COCc1ccco1)CN1CCN(c2ccccc2)CC1 (stereo not given) | 6.51 µM [rising, partial curve, poor fit] | –
44 | COc1ccc(OC)c(NC(=O)CNC(=O)c2ccc([N+](=O)[O-])cc2)c1 | 25.1 µM [rising, single point] | –

Row | SMILES | AC50 [1] | AC50 (measured here: IkBa-CBG green luminescence)
45 | COc1cc(C(=O)NCC2CCCO2)ccc1OCc1c(C)noc1C (stereo not given) | 14.1 µM [rising, partial curve, poor fit] | –
46 | COc1ccccc1NC(=O)Nc1nc(CC(=O)Nc2ccccc2F)cs1 | 0.461 µM [rising, full curve, poor fit] | –
47 | COC(=O)[C@@H]1CCCN1Cc1nc(Cc2ccc(OC)c(OC)c2)no1 | 2 µM [rising, full curve, poor fit] | –
48 | Cc1ccc(NC(=O)Nc2cnc3ccccc3c2)cc1 | 12.6 µM [falling, partial curve] | –
49 | N=C1S/C(=C\c2ccc(-c3ccccc3C(=O)O)o2)C(=O)N1c1ccc2c(c1)OCO2 | 1.78 µM [falling, full curve, poor fit] | –
50 | Brc1ccc(CNc2cc3c(cc2Br)OCCO3)cc1 | 35.5 µM [rising, single point] | –
51 | CCOC(=O)c1c(N2C(=O)CC(Sc3ccccc3C(=O)O)C2=O)sc2c1CCCC2 (stereo not given) | 11.2 µM [falling, partial curve, poor fit] | –
52 | O=C(Nc1nnc(COc2ccccc2)s1)C1CCN(S(=O)(=O)c2ccc(Cl)cc2)CC1 | 2.59 µM [falling, single point] | –
53 | ClC1(Cl)CC1CSc1nc2ccccc2[nH]1 (stereo not given) | 6.31 µM [rising, partial curve, poor fit] | –
54 | CC(C)(C)c1cc(=O)[nH]c(SCc2ccccc2)n1 | 20 µM [falling, partial curve, poor fit] | –
55 | COC(=O)c1cc(NC(=O)c2cc3ccccc3o2)cc(C(=O)OC)c1 | 2.82 µM [rising, full curve] | –
56 | COc1ccc(C2=C(CN(C)C)C(c3ccccc3)c3ccccc3O2)cc1 (stereo not given) | 2 µM [falling, partial curve, poor fit] and 32.6 µM [falling, single point] | –
57 | Nc1nc(N)nc(-c2cccc(Cl)c2Cl)n1 | 32.6 µM [falling, single point] | –
58 | Fc1ccc(F)c(C2=NNC(=Nc3ccccc3F)SC2)c1 | 16.4 µM [falling, partial curve] | –
59 | O=C(O)[C@H]1CCCC[C@H]1C(=O)Nc1ccc(Nc2ccccc2)cc1 | 29.1 µM [rising, single point] | –
60 | COc1ccc(C)cc1NC(=O)CSc1nc(=O)n(Cc2ccccn2)c2c1CCC2 | 35.5 µM [falling, single point] | –
61 | CCC(=O)Nc1ccc(NC(=S)NC(=O)c2cc3ccccc3o2)cc1 | 3.26 µM [rising, full curve, poor fit] | –
62 | O=C(CC1Sc2ccccc2NC1=O)Nc1cccc(C(=O)O)c1 (stereo not given) | 20.6 µM [falling, partial curve] | –
63 | Cc1cc(OC(=O)c2ccc(S(=O)(=O)N(C)C)cc2)c([N+](=O)[O-])c(=O)[nH]1 | 35.5 µM [rising, partial curve, poor fit] | –
64 | COc1ccccc1C(=O)NC(CCSC)C(=O)NCc1ccccn1 (stereo not given) | 18.4 µM [rising, single point] | –
